In publication PMC7677368 one finds binding data, which are given here for eleven molecules.

Chains of the proteins cited; added tags and fusions are not shown. Lines headed by an entry give the natural chain unless they say otherwise; changes in a name come on top.
UniProt Q03919: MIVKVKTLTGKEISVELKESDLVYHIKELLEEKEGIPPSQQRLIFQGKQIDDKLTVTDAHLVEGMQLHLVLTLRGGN
UniProt P52286: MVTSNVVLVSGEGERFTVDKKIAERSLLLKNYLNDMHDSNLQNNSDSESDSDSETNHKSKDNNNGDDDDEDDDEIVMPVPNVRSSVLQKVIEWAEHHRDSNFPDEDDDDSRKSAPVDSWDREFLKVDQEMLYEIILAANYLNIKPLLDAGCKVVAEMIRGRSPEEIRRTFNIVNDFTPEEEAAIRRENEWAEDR
UniProt P08536: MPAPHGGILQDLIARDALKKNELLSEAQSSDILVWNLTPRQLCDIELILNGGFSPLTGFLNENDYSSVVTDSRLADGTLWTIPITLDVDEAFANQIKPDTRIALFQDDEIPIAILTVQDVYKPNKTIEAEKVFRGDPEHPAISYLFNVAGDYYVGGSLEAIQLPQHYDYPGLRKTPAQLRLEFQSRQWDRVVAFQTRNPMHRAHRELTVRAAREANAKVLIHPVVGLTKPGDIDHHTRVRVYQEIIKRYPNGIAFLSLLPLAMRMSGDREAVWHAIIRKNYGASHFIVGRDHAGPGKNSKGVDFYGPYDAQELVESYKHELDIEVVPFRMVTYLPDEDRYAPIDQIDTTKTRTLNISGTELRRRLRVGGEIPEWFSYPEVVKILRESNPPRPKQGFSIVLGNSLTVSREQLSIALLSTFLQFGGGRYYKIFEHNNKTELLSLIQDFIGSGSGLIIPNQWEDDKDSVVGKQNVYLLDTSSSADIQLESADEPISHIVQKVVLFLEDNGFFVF

Assay [1] deals with N-terminal 2xHA-tagged S. cerevisiae Rub1 expressed in S. cerevisiae rub1Δ (S. cerevisiae) (UniProt Q03919). The assay can be described thus: affinity purification with mass spectrometry; lysates of rub1Δ[HA-PfN8] and rub1Δ[HA-rub1] S. cerevisiae (0.5% NP-40, 150 mM NaCl, pH 7.5) immunoprecipitated with mouse anti-HA antibody on protein A/G magnetic beads, overnight at 4 °C; wild type strain as control; eluate by LC-MS/MS.

In assay [2] the target is T1, N-terminal 2xHA-tagged PfNEDD8 expressed in S. cerevisiae rub1Δ (P. falciparum) (UniProt Q8IEI4).
T1 sequence: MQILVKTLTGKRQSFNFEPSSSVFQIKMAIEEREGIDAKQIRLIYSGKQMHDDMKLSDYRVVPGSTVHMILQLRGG
The description is as above.

No constants are given. Whether binding was seen depends on the method and setting. In cells and extracts the contact can be indirect. Here binding means that the protein was enriched with, or labelled near, the bait; the list need not be complete. For some of these results: Sequences can lack the tags named with a protein.

For “S. cerevisiae suppressor of kinetochore protein 1 (from UniProt P52286 1-194)”, the binding entry in assay [1] and in assay [2] was “binds” throughout.

Consider “S. cerevisiae sulfate adenylyl transferase (from UniProt P08536 1-511) (enzyme)”, for which the binding entry in assay [1] and in assay [2] was “binds” each time.

B1: S. cerevisiae NEDD8-activating enzyme E1 catalytic subunit (enzyme, UniProt Q99344 1-299)
chain: MDCKILVLGAGGLGCEILKNLTMLSFVKQVHIVDIDTIELTNLNRQFLFCDKDIGKPKAQVAAQYVNTRFPQLEVVAHVQDLTTLPPSFYKDFQFIISGLDAIEPRRFINETLVKLTLESNYEICIPFIDGGTEGLKGHVKTIIPGITACWECSIDTLPSQQDTVPMCTIANNPRCIEHVVEYVSTIQYPDLNIESTADMEFLLEKCCERAAQFSISTEKLSTSFILGIIKSIIPSVSTTNAMVAATCCTQMVKIYNDLIDLENGNNFTLINCSEGCFMYSFKFERLPDCTVCSNSNSN
As for B1, the binding entry in assay [1] and in assay [2] was “binds” in each case.

B2: S. cerevisiae RING-box protein HRT1 (protein, UniProt Q08273 1-121)
chain: MSNEVDRMDVDEDESQNIAQSSNQSAPVETKKKRFEIKKWTAVAFWSWDIAVDNCAICRNHIMEPCIECQPKAMTDTDNECVAAWGVCNHAFHLHCINKWIKTRDACPLDNQPWQLARCGR
For B2, the binding entry in assay [1] and in assay [2] was “binds” in each case.

B3: S. cerevisiae SCF E3 ubiquitin ligase complex F-box protein GRR1 (protein, UniProt P24814 1-1151)
chain: MDQDNNNHNDSNRLHPPDIHPNLGPQLWLNSSGDFDDNNNNNNNNNNNNSTRPQMPSRTRETATSERNASEVRDATLNNIFRFDSIQRETLLPTNNGQPLNQNFSLTFQPQQQTNALNGIDINTVNTNLMNGVNVQIDQLNRLLPNLPEEERKQIHEFKLIVGKKIQEFLVVIEKRRKKILNEIELDNLKLKELRIDNSPQAISYLHKLQRMRLRALETENMEIRNLRLKILTIIEEYKKSLYAYCHSKLRGQQVENPTDNFIIWINSIDTTESSDLKEGLQDLSRYSRQFINNVLSNPSNQNICTSVTRRSPVFALNMLPSEILHLILDKLNQKYDIVKFLTVSKLWAEIIVKILYYRPHINKKSQLDLFLRTMKLTSEETVFNYRLMIKRLNFSFVGDYMHDTELNYFVGCKNLERLTLVFCKHITSVPISAVLRGCKFLQSVDITGIRDVSDDVFDTLATYCPRVQGFYVPQARNVTFDSLRNFIVHSPMLKRIKITANNNMNDELVELLANKCPLLVEVDITLSPNVTDSSLLKLLTRLVQLREFRITHNTNITDNLFQELSKVVDDMPSLRLIDLSGCENITDKTIESIVNLAPKLRNVFLGKCSRITDASLFQLSKLGKNLQTVHFGHCFNITDNGVRALFHSCTRIQYVDFACCTNLTNRTLYELADLPKLKRIGLVKCTQMTDEGLLNMVSLRGRNDTLERVHLSYCSNLTIYPIYELLMSCPRLSHLSLTAVPSFLRPDITMYCRPAPSDFSENQRQIFCVFSGKGVHKLRHYLVNLTSPAFGPHVDVNDVLTKYIRSKNLIFNGETLEDALRRIITDLNQDSAAIIAATGLNQINGLNNDFLFQNINFERIDEVFSWYLNTFDGIRMSSEEVNSLLLQVNKTFCEDPFSDVDDDQDYVVAPGVNREINSEMCHIVRKFHELNDHIDDFEVNVASLVRVQFQFTGFLLHEMTQTYMQMIELNRQICLVQKTVQESGNIDYQKGLLIWRLLFIDKFIMVVQKYKLSTVVLRLYLKDNITLLTRQRELLIAHQRSAWNNNNDNDANRNANNIVNIVSDAGANDTSNNETNNGNDDNETENPNFWRQFGNRMQISPDQMRNLQMGLRNQNMVRNNNNNTIDESMPDTAIDSQMDEASGTPDEDML
Take B3: the binding result in assay [1] and in assay [2] was “binds” each time.

B4: S. cerevisiae homocysteine methyltransferase (enzyme, UniProt P05694 1-767)
chain: MVQSAVLGFPRIGPNRELKKATEGYWNGKITVDELFKVGKDLRTQNWKLQKEAGVDIIPSNDFSFYDQVLDLSLLFNVIPDRYTKYDLSPIDTLFAMGRGLQRKATETEKAVDVTALEMVKWFDSNYHYVRPTFSKTTQFKLNGQKPVDEFLEAKELGIHTRPVLLGPVSYLFLGKADKDSLDLEPLSLLEQLLPLYTEILSKLASAGATEVQIDEPVLVLDLPANAQAAIKKAYTYFGEQSNLPKITLATYFGTVVPNLDAIKGLPVAALHVDFVRAPEQFDEVVAAIGNKQTLSVGIVDGRNIWKNDFKKSSAIVNKAIEKLGADRVVVATSSSLLHTPVDLNNETKLDAEIKGFFSFATQKLDEVVVITKNVSGQDVAAALEANAKSVESRGKSKFIHDAAVKARVASIDEKMSTRAAPFEQRLPEQQKVFNLPLFPTTTIGSFPQTKDIRINRNKFNKGTISAEEYEKFINSEIEKVIRFQEEIGLDVLVHGEPERNDMVQYFGEQINGYAFTVNGWVQSYGSRYVRPPIIVGDLSRPKAMSVKESVYAQSITSKPVKGMLTGPITCLRWSFPRDDVDQKTQAMQLALALRDEVNDLEAAGIKVIQVDEPALREGLPLREGTERSAYYTWAAEAFRVATSGVANKTQIHSHFCYSDLDPNHIKALDADVVSIEFSKKDDANYIAEFKNYPNHIGLGLFDIHSPRIPSKDEFIAKISTILKSYPAEKFWVNPDCGLKTRGWEETRLSLTHMVEAAKYFREQYKN
With B4, the binding result in assay [1] and in assay [2] was “binds” throughout.

B5: S. cerevisiae F-box protein DAS1 (protein, UniProt P47005 1-663)
chain: MPFQDYFQKKKAAFINRNNKSNADASALRDINDININFAAKSKNYVFPLTKLPDELMQEVFSHLPQPDRLQLCLVNKRLNKIATKLLYRRIYLNDSNVVKSDFMHLAINWTLLNLPSSLKEEESRDIANCKLKKLIETLQNNIHITEVIQWIRINWDLDSTLQRSILSILCNQGKSLQRLENVTDPACNDIISNGHFSRSNVSSFDMAPPNSLPEMVVPENYIPNLTKYLSQRISSRLSHMTLFIDPLKLFNYLYPLDIKLQIIDLKLHWRREFYNNDYFVKKIRPGNPLTKLSEVFDKRTLKILTIISWNDTLLKRETEMLKDFKEFENLEDLSLISIKQDVHILVDLFSSLTNLKRLKMDFLEEYVPEPTNPHIFLSILLACSKLQFIDLRYDGLIPQIINIQENKFQLNQQCNCTNCQIVFSDILKGKIFMFPEDYYIHDLQDIAAKDIFKMMKYLSLLPYSKACDAYPSVRTQPMNLTNFVTKMNRNLLEYRNSKSQLVPKIVNNPHQHSTVTSTSTAHMSEPEMIIIDDDDDDDEINAAIPPSSDDTAATISTDLELPHESLTKRDIIMCYHALIHHFKSIYVTFLKSFPHLRFLMLNDIPTIVMEENNERIFEPVFYHYDYKSNLYGWSKESNKNLENDSNNNNNNSDTIARIATVM
Turning to B5, the binding result in assay [1] and in assay [2] was “binds” throughout.

B6: S. cerevisiae NADP-specific glutamate dehydrogenase 1 (enzyme, UniProt P07262 1-454)
chain: MSEPEFQQAYEEVVSSLEDSTLFEQHPEYRKVLPIVSVPERIIQFRVTWENDKGEQEVAQGYRVQYNSAKGPYKGGLRFHPSVNLSILKFLGFEQIFKNSLTGLDMGGGKGGLCVDLKGRSNNEIRRICYAFMRELSRHIGQDTDVPAGDIGVGGREIGYLFGAYRSYKNSWEGVLTGKGLNWGGSLIRPEATGYGLVYYTQAMIDYATNGKESFEGKRVTISGSGNVAQYAALKVIELGGTVVSLSDSKGCIISETGITSEQVADISSAKVNFKSLEQIVNEYSTFSENKVQYIAGARPWTHVQKVDIALPCATQNEVSGEEAKALVAQGVKFIAEGSNMGSTPEAIAVFETARSTATGPSEAVWYGPPKAANLGGVAVSGLEMAQNSQRITWTSERVDQELKRIMINCFNECIDYAKKYTKDGKVLPSLVKGANIASFIKVSDAMFDQGDVF
Regarding B6, the binding entry in assay [1] and in assay [2] was “binds” throughout.

B7: S. cerevisiae peroxiredoxin TSA1 (enzyme, UniProt P34760 1-196)
chain: MVAQVQKQAPTFKKTAVVDGVFDEVSLDKYKGKYVVLAFIPLAFTFVCPTEIIAFSEAAKKFEEQGAQVLFASTDSEYSLLAWTNIPRKEGGLGPINIPLLADTNHSLSRDYGVLIEEEGVALRGLFIIDPKGVIRHITINDLPVGRNVDEALRLVEAFQWTDKNGTVLPCNWTPGAATIKPTVEDSKEYFEAANK
In the case of B7, the binding entry in assay [1] and in assay [2] was “binds” each time.

B8: S. cerevisiae cell division control protein 53 (protein, UniProt Q12018 1-815)
chain: MSETLPRSDDLEATWNFIEPGINQILGNEKNQASTSKRVYKILSPTMYMEVYTAIYNYCVNKSRSSGHFSTDSRTGQSTILVGSEIYEKLKNYLKNYILNFKQSNSETFLQFYVKRWKRFTIGAIFLNHAFDYMNRYWVQKERSDGKRHIFDVNTLCLMTWKEVMFDPSKDVLINELLDQVTLGREGQIIQRSNISTAIKSLVALGIDPQDLKKLNLNVYIQVFEKPFLKKTQEYYTQYTNDYLEKHSVTEYIFEAHEIIKREEKAMTIYWDDHTKKPLSMALNKVLITDHIEKLENEFVVLLDARDIEKITSLYALIRRDFTLIPRMASVFENYVKKTGENEISSLLAMHKHNIMKNENANPKKLALMTAHSLSPKDYIKKLLEVHDIFSKIFNESFPDDIPLAKALDNACGAFININEFALPAGSPKSATSKTSEMLAKYSDILLKKATKPEVASDMSDEDIITIFKYLTDKDAFETHYRRLFAKRLIHGTSTSAEDEENIIQRLQAANSMEYTGKITKMFQDIRLSKILEDDFAVALKNEPDYSKAKYPDLQPFVLAENMWPFSYQEVEFKLPKELVPSHEKLKESYSQKHNGRILKWLWPLCRGELKADIGKPGRMPFNFTVTLFQMAILLLYNDADVLTLENIQEGTSLTIQHIAAAMVPFIKFKLIQQVPPGLDALVKPETQFKLSRPYKALKTNINFASGVKNDILQSLSGGGHDNHGNKLGNKRLTEDERIEKELNTERQIFLEACIVRIMKAKRNLPHTTLVNECIAQSHQRFNAKVSMVKRAIDSLIQKGYLQRGDDGESYAYLA
For the molecule B8, the binding entry in assay [1] and in assay [2] was “binds” in each case.

B9: S. cerevisiae NEDD8-activating enzyme E1 regulatory subunit (enzyme, UniProt Q12059 1-462)
chain: MERYDRQLRLWGALGQDSLNRSRVCVVGPATPLLQEVFKNLVLAGISSLTWLKVECAVQSGSLFLAELKKDLEPLASKQLEYEENDLRKTLQQPQYDWTRFSVVILTCIGEQTAMLDLNEIRRQRGTKFPPVLNTFVSGFYGYIYLVLSETHFVLQAHPDSKKYDLRLQNPWPELINYVDTFDLSKMDTATFSGIPYTVLLMKCIAKLERDGNNGRITIDQMKKVLDQICLPLGNDVIYEPNYVEAKRYAYLACSQNDCCKELEDLLRNLEISDYGNDWHDTYNYEILTLLLTLKNIAKENGELSFQPLTGTLPDMESTTENYIRLKKLYEVKAKLDKSRVEESLARSKKIVSQDVLETFCSHYGEVRKILPPKSDLLGIFSTSNALLDALVMVQFWEQPAVTAEDKDEFIGLRVDDNYSVMAFFGGAVVQEAIKLITHHYVPIDNLFLYNGINNSSATYKI
Take B9: the binding entry in assay [1] and in assay [2] was “binds” each time.
